The record followed here is ChEMBL document CHEMBL2150860, “Herbarone, a rearranged heptaketide derivative from the sea hare associated fungus Torula herbarum” (J Nat Prod, 2012).

pIC50: −log10 of the molar value.

In general, pIC50 refers to the IC50 on a negative log10 scale, so that one unit is a factor of ten. Higher therefore signals a small IC50.

The experiment has as its system A549. Briefly: Cytotoxicity against human A549 cells by MTT colorimetric method. It is filed as functional, cell-based. On the technique in general: Tetrazolium dyes change colour on reduction, which living cells bring about.

Consider `COc1cccc2c1C(=O)c1c(O)c3c(c(O)c1C2=O)C[C@@](O)(C(=O)CO)C[C@@H]3O[C@H]1C[C@H](N)[C@H](O)[C@H](C)O1` [DOXORUBICIN], for which the pIC50 is 5.57.
